Test results taken from publication PMC5548719.
Results are given in words; binding and its absence hold for the method and conditions named. For some assays here: Binding seen in cells or lysates may run through a third protein. Some results given as binding are weak or reduced against the parent protein; the word gives no strength. For some assays here: Tags and fused reporters may be left off the sequences shown.

Amino acid sequences for entries named in this document (tags omitted).
UniProt Q9Y5Q3: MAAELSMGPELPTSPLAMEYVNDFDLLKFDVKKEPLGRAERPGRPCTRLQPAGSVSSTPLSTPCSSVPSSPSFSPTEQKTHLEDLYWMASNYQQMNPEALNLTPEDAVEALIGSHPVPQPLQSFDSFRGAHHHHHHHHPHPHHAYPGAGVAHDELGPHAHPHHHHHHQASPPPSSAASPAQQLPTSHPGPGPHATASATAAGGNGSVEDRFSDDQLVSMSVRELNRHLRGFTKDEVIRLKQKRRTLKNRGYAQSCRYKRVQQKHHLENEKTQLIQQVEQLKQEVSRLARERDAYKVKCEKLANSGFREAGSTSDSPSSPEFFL

B1: LXRα (in 293ETN cells) (protein, UniProt Q13133 1-447)
chain: MSLWLGAPVPDIPPDSAVELWKPGAQDASSQAQGGSSCILREEARMPHSAGGTAGVGLEAAEPTALLTRAEPPSEPTEIRPQKRKKGPAPKMLGNELCSVCGDKASGFHYNVLSCEGCKGFFRRSVIKGAHYICHSGGHCPMDTYMRRKCQECRLRKCRQAGMREECVLSEEQIRLKKLKRQEEEQAHATSLPPRASSPPQILPQLSPEQLGMIEKLVAAQQQCNRRSFSDRLRVTPWPMAPDPHSREARQQRFAHFTELAIVSVQEIVDFAKQLPGFLQLSREDQIALLKTSAIEVMLLETSRRYNPGSESITFLKDFSYNREDFAKAGLQVEFINPIFEFSRAMNELQLNDAEFALLIAISIFSADRPNVQDQLQVERLQHTYVEALHAYVSIHHPHDRLMFPRMLMKLVSLRTLSSVHSEQVFALRLQDKKLPPLLSEIWDVHE
B2: Myc/DDK-LXRα (protein, UniProt Q13133 1-447)
chain: MSLWLGAPVPDIPPDSAVELWKPGAQDASSQAQGGSSCILREEARMPHSAGGTAGVGLEAAEPTALLTRAEPPSEPTEIRPQKRKKGPAPKMLGNELCSVCGDKASGFHYNVLSCEGCKGFFRRSVIKGAHYICHSGGHCPMDTYMRRKCQECRLRKCRQAGMREECVLSEEQIRLKKLKRQEEEQAHATSLPPRASSPPQILPQLSPEQLGMIEKLVAAQQQCNRRSFSDRLRVTPWPMAPDPHSREARQQRFAHFTELAIVSVQEIVDFAKQLPGFLQLSREDQIALLKTSAIEVMLLETSRRYNPGSESITFLKDFSYNREDFAKAGLQVEFINPIFEFSRAMNELQLNDAEFALLIAISIFSADRPNVQDQLQVERLQHTYVEALHAYVSIHHPHDRLMFPRMLMKLVSLRTLSSVHSEQVFALRLQDKKLPPLLSEIWDVHE

Columns and labels:
[1] = target: Flag-MafB (not stated (human or mouse cDNA cloned)) (UniProt Q9Y5Q3); assay: co-IP; Immunoprecipitation from 293ETN cells expressing Flag-MafB; immunoblot for LXRα
[2] = target: Flag-MafB (not stated (human or mouse cDNA cloned)) (UniProt Q9Y5Q3); assay: co-IP; Immunopurified Flag-MafB (M2 Affinity Gel) with Myc/DDK-LXRα obtained from OriGene; immunoprecipitation and immunoblot; both purified

Row | Binder | binding [1] | binding [2]
1 | B1 | binds | –
2 | B2 | – | binds
